Assay results published in paper doi:10.1101/2022.01.12.475930.
These are yes or no findings as the source states them, for the method shown. In cells and extracts the contact can be indirect. Some binding calls cover weakened binding; strength is not graded here. Values belong to the binder of their own block, whether it stands above or below them.

What was measured:
[1] = molecular target: T1, FLOT2 (human (endogenous in HEK293)) (UniProt Q14254); assay: co-IP
T1 sequence: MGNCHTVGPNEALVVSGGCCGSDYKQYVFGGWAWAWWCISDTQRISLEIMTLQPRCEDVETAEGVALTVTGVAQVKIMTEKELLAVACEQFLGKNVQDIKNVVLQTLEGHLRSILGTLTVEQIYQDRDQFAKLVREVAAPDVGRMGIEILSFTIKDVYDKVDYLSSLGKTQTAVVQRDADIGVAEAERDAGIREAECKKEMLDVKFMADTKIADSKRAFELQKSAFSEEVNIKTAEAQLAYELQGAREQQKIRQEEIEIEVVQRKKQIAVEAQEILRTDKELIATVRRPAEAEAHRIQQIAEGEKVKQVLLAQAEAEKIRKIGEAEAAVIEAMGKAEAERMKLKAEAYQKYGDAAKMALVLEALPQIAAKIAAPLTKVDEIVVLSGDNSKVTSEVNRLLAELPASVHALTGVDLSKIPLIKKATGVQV

[2] = molecular target: T1, FLOT2 (human (endogenous in HEK293)); assay: cross-linking
[3] = molecular target: T2, FLOT1 (human (endogenous in HEK293)) (UniProt O75955); assay: co-IP
T2 sequence: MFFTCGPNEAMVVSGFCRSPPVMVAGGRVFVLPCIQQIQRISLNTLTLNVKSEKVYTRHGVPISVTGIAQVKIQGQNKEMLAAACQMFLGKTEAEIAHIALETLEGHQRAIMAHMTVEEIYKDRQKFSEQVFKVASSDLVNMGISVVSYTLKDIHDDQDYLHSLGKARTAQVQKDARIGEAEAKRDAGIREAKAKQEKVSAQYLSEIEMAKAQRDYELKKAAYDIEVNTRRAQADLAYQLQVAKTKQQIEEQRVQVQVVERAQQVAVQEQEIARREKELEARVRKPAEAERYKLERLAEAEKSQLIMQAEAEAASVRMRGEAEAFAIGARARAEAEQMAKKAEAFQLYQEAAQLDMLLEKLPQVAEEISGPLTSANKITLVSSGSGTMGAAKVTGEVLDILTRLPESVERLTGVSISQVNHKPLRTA

B1: FLOT1 (protein, UniProt O75955 1-427)
chain: MFFTCGPNEAMVVSGFCRSPPVMVAGGRVFVLPCIQQIQRISLNTLTLNVKSEKVYTRHGVPISVTGIAQVKIQGQNKEMLAAACQMFLGKTEAEIAHIALETLEGHQRAIMAHMTVEEIYKDRQKFSEQVFKVASSDLVNMGISVVSYTLKDIHDDQDYLHSLGKARTAQVQKDARIGEAEAKRDAGIREAKAKQEKVSAQYLSEIEMAKAQRDYELKKAAYDIEVNTRRAQADLAYQLQVAKTKQQIEEQRVQVQVVERAQQVAVQEQEIARREKELEARVRKPAEAERYKLERLAEAEKSQLIMQAEAEAASVRMRGEAEAFAIGARARAEAEQMAKKAEAFQLYQEAAQLDMLLEKLPQVAEEISGPLTSANKITLVSSGSGTMGAAKVTGEVLDILTRLPESVERLTGVSISQVNHKPLRTA
- binding [1]: binds
- binding [2]: binds

B2: LPHN1 (receptor, UniProt O94910 25-1474)
chain: LSRAGLPFGLMRRELACEGYPIELRCPGSDVIMVENANYGRTDDKICDADPFQMENVQCYLPDAFKIMSQRCNNRTQCVVVAGSDAFPDPCPGTYKYLEVQYDCVPYKVEQKVFVCPGTLQKVLEPTSTHESEHQSGAWCKDPLQAGDRIYVMPWIPYRTDTLTEYASWEDYVAARHTTTYRLPNRVDGTGFVVYDGAVFYNKERTRNIVKYDLRTRIKSGETVINTANYHDTSPYRWGGKTDIDLAVDENGLWVIYATEGNNGRLVVSQLNPYTLRFEGTWETGYDKRSASNAFMVCGVLYVLRSVYVDDDSEAAGNRVDYAFNTNANREEPVSLTFPNPYQFISSVDYNPRDNQLYVWNNYFVVRYSLEFGPPDPSAGPATSPPLSTTTTARPTPLTSTASPAATTPLRRAPLTTHPVGAINQLGPDLPPATAPVPSTRRPPAPNLHVSPELFCEPREVRRVQWPATQQGMLVERPCPKGTRGIASFQCLPALGLWNPRGPDLSNCTSPWVNQVAQKIKSGENAANIASELARHTRGSIYAGDVSSSVKLMEQLLDILDAQLQALRPIERESAGKNYNKMHKRERTCKDYIKAVVETVDNLLRPEALESWKDMNATEQVHTATMLLDVLEEGAFLLADNVREPARFLAAKENVVLEVTVLNTEGQVQELVFPQEEYPRKNSIQLSAKTIKQNSRNGVVKVVFILYNNLGLFLSTENATVKLAGEAGPGGPGGASLVVNSQVIAASINKESSRVFLMDPVIFTVAHLEDKNHFNANCSFWNYSERSMLGYWSTQGCRLVESNKTHTTCACSHLTNFAVLMAHREIYQGRINELLLSVITWVGIVISLVCLAICISTFCFLRGLQTDRNTIHKNLCINLFLAELLFLVGIDKTQYEIACPIFAGLLHYFFLAAFSWLCLEGVHLYLLLVEVFESEYSRTKYYYLGGYCFPALVVGIAAAIDYRSYGTEKACWLRVDNYFIWSFIGPVSFVIVVNLVFLMVTLHKMIRSSSVLKPDSSRLDNIKSWALGAIALLFLLGLTWAFGLLFINKESVVMAYLFTTFNAFQGVFIFVFHCALQKKVHKEYSKCLRHSYCCIRSPPGGTHGSLKTSAMRSNTRYYTGTQSRIRRMWNDTVRKQTESSFMAGDINSTPTLNRGTMGNHLLTNPVLQPRGGTSPYNTLIAESVGFNPSSPPVFNSPGSYREPKHPLGGREACGMDTLPLNGNFNNSYSLRSGDFPPGDGGPEPPRGRNLADAAAFEKMIISELVHNNLRGSSSAAKGPPPPEPPVPPVPGGGGEEEAGGPGGADRAEIELLYKALEEPLLLPRAQSVLYQSDLDESESCTAEDGATSRPLSSPPGRDSLYASGANLRDSPSYPDSSPEGPSEALPPPPPAPPGPPEIYYTSRPPALVARNPLQGYYQVRRPSHEGYLAAPGLEGPGPDGDGQMQLVTSL
- binding [3]: binds
- binding [1]: binds

Other lines, results leading:

- binding [3]: binds
- binding [1]: binds
B3: LPHN2 (receptor, UniProt O95490 26-1459)
chain: FSRAALPFGLVRRELSCEGYSIDLRCPGSDVIMIESANYGRTDDKICDADPFQMENTDCYLPDAFKIMTQRCNNRTQCIVVTGSDVFPDPCPGTYKYLEVQYECVPYIFVCPGTLKAIVDSPCIYEAEQKAGAWCKDPLQAADKIYFMPWTPYRTDTLIEYASLEDFQNSRQTTTYKLPNRVDGTGFVVYDGAVFFNKERTRNIVKFDLRTRIKSGEAIINYANYHDTSPYRWGGKTDIDLAVDENGLWVIYATEQNNGMIVISQLNPYTLRFEATWETVYDKRAASNAFMICGVLYVVRSVYQDNESETGKNSIDYIYNTRLNRGEYVDVPFPNQYQYIAAVDYNPRDNQLYVWNNNFILRYSLEFGPPDPAQVPTTAVTITSSAELFKTIISTTSTTSQKGPMSTTVAGSQEGSKGTKPPPAVSTTKIPPITNIFPLPERFCEALDSKGIKWPQTQRGMMVERPCPKGTRGTASYLCMISTGTWNPKGPDLSNCTSHWVNQLAQKIRSGENAASLANELAKHTKGPVFAGDVSSSVRLMEQLVDILDAQLQELKPSEKDSAGRSYNKLQKREKTCRAYLKAIVDTVDNLLRPEALESWKHMNSSEQAHTATMLLDTLEEGAFVLADNLLEPTRVSMPTENIVLEVAVLSTEGQIQDFKFPLGIKGAGSSIQLSANTVKQNSRNGLAKLVFIIYRSLGQFLSTENATIKLGADFIGRNSTIAVNSHVISVSINKESSRVYLTDPVLFTLPHIDPDNYFNANCSFWNYSERTMMGYWSTQGCKLVDTNKTRTTCACSHLTNFAILMAHREIAYKDGVHELLLTVITWVGIVISLVCLAICIFTFCFFRGLQSDRNTIHKNLCINLFIAEFIFLIGIDKTKYAIACPIFAGLLHFFFLAAFAWMCLEGVQLYLMLVEVFESEYSRKKYYYVAGYLFPATVVGVSAAIDYKSYGTEKACWLHVDNYFIWSFIGPVTFIILLNIIFLVITLCKMVKHSNTLKPDSSRLENIKSWVLGAFALLCLLGLTWSFGLLFINEETIVMAYLFTIFNAFQGVFIFIFHCALQKKVRKEYGKCFRHSYCCGGLPTESPHSSVKASTTRTSARYSSGTQSRIRRMWNDTVRKQSESSFISGDINSTSTLNQGMTGNYLLTNPLLRPHGTNNPYNTLLAETVVCNAPSAPVFNSPGHSLNNARDTSAMDTLPLNGNFNNSYSLHKGDYNDSVQVVDCGLSLNDTAFEKMIISELVHNNLRGSSKTHNLELTLPVKPVIGGSSSEDDAIVADASSLMHSDNPGLELHHKELEAPLIPQRTHSLLYQPQKKVKSEGTDSYVSQLTAEAEDHLQSPNRDSLYTSMPNLRDSPYPESSPDMEEDLSPSRRSENEDIYYKSMPNLGAGHQLQMCYQISRGNSDGYIIPINKEGCIPEGDVREGQMQLVTSL

- binding [3]: binds
- binding [1]: binds
B4: LPHN3 (receptor, UniProt Q9HAR2 20-1447)
chain: FSRAPIPMAVVRRELSCESYPIELRCPGTDVIMIESANYGRTDDKICDSDPAQMENIRCYLPDAYKIMSQRCNNRTQCAVVAGPDVFPDPCPGTYKYLEVQYECVPYKVEQKVFLCPGLLKGVYQSEHLFESDHQSGAWCKDPLQASDKIYYMPWTPYRTDTLTEYSSKDDFIAGRPTTTYKLPHRVDGTGFVVYDGALFFNKERTRNIVKFDLRTRIKSGEAIIANANYHDTSPYRWGGKSDIDLAVDENGLWVIYATEQNNGKIVISQLNPYTLRIEGTWDTAYDKRSASNAFMICGILYVVKSVYEDDDNEATGNKIDYIYNTDQSKDSLVDVPFPNSYQYIAAVDYNPRDNLLYVWNNYHVVKYSLDFGPLDSRSGQAHHGQVSYISPPIHLDSELERPSVKDISTTGPLGMGSTTTSTTLRTTTLSPGRSTTPSVSGRRNRSTSTPSPAVEVLDDMTTHLPSASSQIPALEESCEAVEAREIMWFKTRQGQIAKQPCPAGTIGVSTYLCLAPDGIWDPQGPDLSNCSSPWVNHITQKLKSGETAANIARELAEQTRNHLNAGDITYSVRAMDQLVGLLDVQLRNLTPGGKDSAARSLNKAMVETVNNLLQPQALNAWRDLTTSDQLRAATMLLHTVEESAFVLADNLLKTDIVRENTDNIKLEVARLSTEGNLEDLKFPENMGHGSTIQLSANTLKQNGRNGEIRVAFVLYNNLGPYLSTENASMKLGTEALSTNHSVIVNSPVITAAINKEFSNKVYLADPVVFTVKHIKQSEENFNPNCSFWSYSKRTMTGYWSTQGCRLLTTNKTHTTCSCNHLTNFAVLMAHVEVKHSDAVHDLLLDVITWVGILLSLVCLLICIFTFCFFRGLQSDRNTIHKNLCISLFVAELLFLIGINRTDQPIACAVFAALLHFFFLAAFTWMFLEGVQLYIMLVEVFESEHSRRKYFYLVGYGMPALIVAVSAAVDYRSYGTDKVCWLRLDTYFIWSFIGPATLIIMLNVIFLGIALYKMFHHTAILKPESGCLDNIKSWVIGAIALLCLLGLTWAFGLMYINESTVIMAYLFTIFNSLQGMFIFIFHCVLQKKVRKEYGKCLRTHCCSGKSTESSIGSGKTSGSRTPGRYSTGSQSRIRRMWNDTVRKQSESSFITGDINSSASLNREGLLNNARDTSVMDTLPLNGNHGNSYSIASGEYLSNCVQIIDRGYNHNETALEKKILKELTSNYIPSYLNNHERSSEQNRNLMNKLVNNLGSGREDDAIVLDDATSFNHEESLGLELIHEESDAPLLPPRVYSTENHQPHHYTRRRIPQDHSESFFPLLTNEHTEDLQSPHRDSLYTSMPTLAGVAATESVTTSTQTEPPPAKCGDAEDVYYKSMPNLGSRNHVHQLHTYYQLGRGSSDGFIVPPNKDGTPPEGSSKGPAHLVTSL
